Experimental data as given in patent publication US20200157217A1 (SYSTIMMUNE, published 2020).
Results are given in words; binding and its absence hold for the method and conditions named. Some entries that bind do so weakly or less than the wild type.

The chains behind the UniProt entries cited, without tags or fusion partners. Where a name states a change or a piece, a line headed by the entry shows the natural chain unless it says otherwise.
UniProt P07766: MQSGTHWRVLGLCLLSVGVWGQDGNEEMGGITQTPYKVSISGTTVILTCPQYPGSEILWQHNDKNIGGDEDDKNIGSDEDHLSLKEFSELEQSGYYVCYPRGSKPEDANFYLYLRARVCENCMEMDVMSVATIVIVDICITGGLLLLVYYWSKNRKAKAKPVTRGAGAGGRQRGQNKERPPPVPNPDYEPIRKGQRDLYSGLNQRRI
UniProt P09693: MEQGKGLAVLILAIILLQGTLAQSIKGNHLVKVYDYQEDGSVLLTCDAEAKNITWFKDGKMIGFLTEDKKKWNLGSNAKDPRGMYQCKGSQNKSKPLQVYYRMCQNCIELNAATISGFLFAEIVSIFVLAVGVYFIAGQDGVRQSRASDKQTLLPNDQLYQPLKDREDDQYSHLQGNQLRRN
UniProt P04234: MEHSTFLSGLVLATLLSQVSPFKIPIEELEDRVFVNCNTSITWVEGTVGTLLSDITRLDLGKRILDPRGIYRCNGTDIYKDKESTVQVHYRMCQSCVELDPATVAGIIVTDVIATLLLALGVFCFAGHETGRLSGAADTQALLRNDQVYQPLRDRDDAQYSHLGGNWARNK

Key:
[1] = target: T1, human CD3 (Delta, Gamma, Epsilon) on the human T cell line Jurkat or on purified human CD3+ T cells (human) (UniProt P07766+P09693+P04234); experiment: FACS on the human CD3+ T cell line Jurkat
[2] = target: T1, human CD3 (Delta, Gamma, Epsilon) on the human T cell line Jurkat or on purified human CD3+ T cells (human); experiment: FACS, antibody titration on Jurkat cells

B1: 299F6 chimeric rabbit/human IgG antibody (antibody, V domains shown)
VH: QSLEESGGRLVTPGTPLTLTCTVSGFTISSNAMSWVRQAPGKGLEWIGVITGRDITYYANWAKGRFTISKTSSTTVDLKMTSLTAEDSATYFCARDGGSSAITSNNIWGPGTLVTVSS
VL: DVVMTQTPSSVSAAVGGTVTINCQASESISSWLAWYQQKPGQPPKLLIYEASKLASGVPSRFSGSGSGTEFTLTISDLECADAATYYCQGYFYFISRSYVNAFGGGTEVVFKR
Which results are given for B1?
binding [1]: binds; binding [2]: binds
